In publication PMC11368183:
Where a chain is given by its changes, count along the chain named. These are yes or no findings as the source states them, for the method shown. Binding seen in cells or lysates may run through a third protein. Some binding calls cover weakened binding; strength is not graded here. For some assays here: Where a sequence is shown, tags or fusion partners need not be part of it.

The chains behind the UniProt entries cited, without tags or fusion partners. Where a name states a change or a piece, a line headed by the entry shows the natural chain unless it says otherwise. A line that says so, or that is headed by a name, gives the form on record, which may keep a tag or linker.
UniProt Q9VQU9: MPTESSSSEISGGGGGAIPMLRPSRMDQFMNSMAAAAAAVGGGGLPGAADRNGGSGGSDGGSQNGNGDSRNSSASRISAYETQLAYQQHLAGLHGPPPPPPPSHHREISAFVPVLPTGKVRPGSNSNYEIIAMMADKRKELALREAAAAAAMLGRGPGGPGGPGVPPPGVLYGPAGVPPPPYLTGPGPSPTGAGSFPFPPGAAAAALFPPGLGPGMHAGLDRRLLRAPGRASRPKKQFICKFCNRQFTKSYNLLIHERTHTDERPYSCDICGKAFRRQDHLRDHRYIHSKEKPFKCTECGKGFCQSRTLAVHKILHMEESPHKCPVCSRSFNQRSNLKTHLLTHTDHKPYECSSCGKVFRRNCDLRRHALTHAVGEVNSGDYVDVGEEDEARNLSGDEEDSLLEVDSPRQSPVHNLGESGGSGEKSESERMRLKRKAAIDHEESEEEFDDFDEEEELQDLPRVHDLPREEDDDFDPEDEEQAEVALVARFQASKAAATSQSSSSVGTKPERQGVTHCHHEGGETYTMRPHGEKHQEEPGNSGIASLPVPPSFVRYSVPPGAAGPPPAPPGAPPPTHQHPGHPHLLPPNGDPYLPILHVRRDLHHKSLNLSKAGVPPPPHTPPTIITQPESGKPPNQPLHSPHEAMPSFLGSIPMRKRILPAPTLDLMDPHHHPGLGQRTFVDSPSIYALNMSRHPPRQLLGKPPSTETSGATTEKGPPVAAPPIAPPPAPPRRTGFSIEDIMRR
HA-Bowl^122–373K137R (Q9VQU9, form named): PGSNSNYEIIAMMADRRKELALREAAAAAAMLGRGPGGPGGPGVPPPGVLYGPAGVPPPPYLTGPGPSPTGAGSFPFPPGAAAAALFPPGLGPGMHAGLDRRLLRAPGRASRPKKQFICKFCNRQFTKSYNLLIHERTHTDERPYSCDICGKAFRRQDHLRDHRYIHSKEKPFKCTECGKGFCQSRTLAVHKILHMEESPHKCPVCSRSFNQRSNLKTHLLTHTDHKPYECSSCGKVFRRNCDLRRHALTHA
UniProt P51592: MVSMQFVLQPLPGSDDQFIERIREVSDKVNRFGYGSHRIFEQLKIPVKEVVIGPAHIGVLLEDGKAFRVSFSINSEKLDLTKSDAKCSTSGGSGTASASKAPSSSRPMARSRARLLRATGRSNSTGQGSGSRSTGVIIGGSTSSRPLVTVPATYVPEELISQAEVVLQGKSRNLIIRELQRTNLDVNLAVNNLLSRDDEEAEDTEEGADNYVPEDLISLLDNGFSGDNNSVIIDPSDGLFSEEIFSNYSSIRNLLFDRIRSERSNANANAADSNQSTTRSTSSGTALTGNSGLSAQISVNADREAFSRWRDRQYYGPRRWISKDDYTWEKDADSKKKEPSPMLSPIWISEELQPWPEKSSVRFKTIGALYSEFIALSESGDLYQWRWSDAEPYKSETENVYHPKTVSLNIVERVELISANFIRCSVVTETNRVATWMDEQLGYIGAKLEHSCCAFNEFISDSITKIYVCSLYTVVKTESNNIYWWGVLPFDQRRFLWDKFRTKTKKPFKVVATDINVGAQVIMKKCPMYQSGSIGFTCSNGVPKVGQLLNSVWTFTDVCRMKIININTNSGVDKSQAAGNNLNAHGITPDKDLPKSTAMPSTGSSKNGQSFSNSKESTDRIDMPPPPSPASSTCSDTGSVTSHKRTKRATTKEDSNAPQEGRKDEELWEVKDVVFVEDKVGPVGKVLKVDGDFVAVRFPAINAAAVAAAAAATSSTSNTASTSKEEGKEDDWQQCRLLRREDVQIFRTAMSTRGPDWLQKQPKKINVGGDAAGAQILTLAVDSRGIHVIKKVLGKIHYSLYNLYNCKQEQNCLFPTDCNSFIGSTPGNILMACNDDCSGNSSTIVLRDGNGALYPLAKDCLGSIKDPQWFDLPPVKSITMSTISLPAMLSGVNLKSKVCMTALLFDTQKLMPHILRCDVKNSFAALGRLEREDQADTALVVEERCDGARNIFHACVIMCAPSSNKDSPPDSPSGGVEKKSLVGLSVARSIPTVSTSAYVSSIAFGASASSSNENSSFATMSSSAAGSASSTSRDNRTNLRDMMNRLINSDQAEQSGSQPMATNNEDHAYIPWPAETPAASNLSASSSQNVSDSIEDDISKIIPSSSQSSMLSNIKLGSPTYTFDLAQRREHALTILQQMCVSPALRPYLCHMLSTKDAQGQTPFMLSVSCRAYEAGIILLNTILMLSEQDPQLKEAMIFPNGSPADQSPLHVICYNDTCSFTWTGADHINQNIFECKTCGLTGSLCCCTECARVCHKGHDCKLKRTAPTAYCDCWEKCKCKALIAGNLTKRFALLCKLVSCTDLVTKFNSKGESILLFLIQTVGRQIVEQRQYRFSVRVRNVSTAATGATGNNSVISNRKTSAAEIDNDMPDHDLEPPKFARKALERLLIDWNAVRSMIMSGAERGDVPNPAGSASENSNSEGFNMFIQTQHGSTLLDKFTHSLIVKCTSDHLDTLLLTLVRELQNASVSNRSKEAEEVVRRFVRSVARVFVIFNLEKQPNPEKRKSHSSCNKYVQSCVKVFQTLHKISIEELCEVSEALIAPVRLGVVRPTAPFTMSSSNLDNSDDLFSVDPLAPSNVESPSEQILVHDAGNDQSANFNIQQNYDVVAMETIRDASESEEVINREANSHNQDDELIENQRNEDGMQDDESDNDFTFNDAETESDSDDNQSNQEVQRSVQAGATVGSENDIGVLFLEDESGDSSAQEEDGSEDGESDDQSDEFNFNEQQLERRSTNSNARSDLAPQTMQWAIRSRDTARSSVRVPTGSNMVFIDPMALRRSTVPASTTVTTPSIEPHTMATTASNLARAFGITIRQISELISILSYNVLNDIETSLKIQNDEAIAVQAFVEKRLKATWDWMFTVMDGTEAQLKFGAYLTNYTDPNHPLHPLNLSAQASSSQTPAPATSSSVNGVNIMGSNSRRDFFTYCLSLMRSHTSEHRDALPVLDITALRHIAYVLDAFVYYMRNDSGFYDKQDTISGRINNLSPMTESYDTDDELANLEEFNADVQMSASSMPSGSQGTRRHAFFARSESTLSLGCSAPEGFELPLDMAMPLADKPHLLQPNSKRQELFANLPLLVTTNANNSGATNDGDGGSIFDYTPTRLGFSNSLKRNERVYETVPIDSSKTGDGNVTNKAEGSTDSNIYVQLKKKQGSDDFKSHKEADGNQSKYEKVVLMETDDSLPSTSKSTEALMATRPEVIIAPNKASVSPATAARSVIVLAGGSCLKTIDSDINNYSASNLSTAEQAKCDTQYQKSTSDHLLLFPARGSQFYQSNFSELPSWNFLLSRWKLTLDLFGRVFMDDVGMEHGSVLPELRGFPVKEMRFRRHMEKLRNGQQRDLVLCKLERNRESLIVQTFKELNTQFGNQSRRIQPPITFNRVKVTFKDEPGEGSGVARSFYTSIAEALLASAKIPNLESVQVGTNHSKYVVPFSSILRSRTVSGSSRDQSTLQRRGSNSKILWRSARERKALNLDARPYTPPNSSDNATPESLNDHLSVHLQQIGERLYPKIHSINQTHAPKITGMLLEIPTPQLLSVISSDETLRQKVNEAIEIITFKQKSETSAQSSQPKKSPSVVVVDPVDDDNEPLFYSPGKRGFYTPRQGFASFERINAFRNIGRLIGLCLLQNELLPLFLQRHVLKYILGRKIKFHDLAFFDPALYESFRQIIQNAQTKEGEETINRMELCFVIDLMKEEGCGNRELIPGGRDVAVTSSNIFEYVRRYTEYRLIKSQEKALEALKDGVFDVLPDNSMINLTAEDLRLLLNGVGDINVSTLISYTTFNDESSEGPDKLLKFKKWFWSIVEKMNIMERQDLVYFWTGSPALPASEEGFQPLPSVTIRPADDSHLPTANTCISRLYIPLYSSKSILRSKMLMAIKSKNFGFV

Tests used:
[1] = biological target: T1, FLAG-Lin (Lines) (Drosophila) (UniProt Q9V4Z9); assay: co-IP; S2R+ cells expressing Lin and Bowl without or with coexpressed Drm; cells treated with PS-341 (Figure 4G)
T1 sequence: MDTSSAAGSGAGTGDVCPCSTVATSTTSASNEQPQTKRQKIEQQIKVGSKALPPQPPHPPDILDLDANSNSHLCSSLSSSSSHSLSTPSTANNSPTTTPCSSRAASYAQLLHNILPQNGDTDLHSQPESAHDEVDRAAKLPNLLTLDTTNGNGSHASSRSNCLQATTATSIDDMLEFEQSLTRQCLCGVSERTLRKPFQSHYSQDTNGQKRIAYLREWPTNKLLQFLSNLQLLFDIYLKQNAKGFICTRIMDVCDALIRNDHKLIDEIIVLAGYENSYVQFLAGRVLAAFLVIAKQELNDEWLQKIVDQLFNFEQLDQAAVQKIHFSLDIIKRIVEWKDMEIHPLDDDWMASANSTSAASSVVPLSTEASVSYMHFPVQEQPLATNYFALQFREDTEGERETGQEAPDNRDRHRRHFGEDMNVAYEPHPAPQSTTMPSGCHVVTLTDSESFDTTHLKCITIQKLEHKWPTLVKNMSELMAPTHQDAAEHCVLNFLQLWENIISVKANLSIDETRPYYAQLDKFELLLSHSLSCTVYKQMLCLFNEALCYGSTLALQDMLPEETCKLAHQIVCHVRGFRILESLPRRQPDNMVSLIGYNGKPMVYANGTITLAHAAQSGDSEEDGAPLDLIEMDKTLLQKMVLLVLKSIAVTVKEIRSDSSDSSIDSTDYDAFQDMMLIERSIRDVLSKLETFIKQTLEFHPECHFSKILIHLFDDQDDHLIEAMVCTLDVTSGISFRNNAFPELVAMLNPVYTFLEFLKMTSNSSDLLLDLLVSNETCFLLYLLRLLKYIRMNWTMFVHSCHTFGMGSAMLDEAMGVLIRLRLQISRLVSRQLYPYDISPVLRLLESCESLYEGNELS

[2] = biological target: T1, FLAG-Lin (Lines) (Drosophila); assay: co-IP; S2R+ cells expressing FLAG-Lin with HA-Bowl and/or Hyd-HA; cells treated with 10 μM PS-341 for 4 h before harvesting (Figure 4C)
[3] = biological target: T1, FLAG-Lin (Lines) (Drosophila); assay: co-IP; S2R+ cells expressing Lin, Lin^A24 or Lin^A25 with HA-Bowl^122–373K137R (Figure 4E) or with Hyd (Figure 4F)
[4] = biological target: T2, Lin^A24 mutant protein (F713S) (Drosophila) (UniProt Q9V4Z9); assay: as above
T2 sequence: T1 sequence with F713S

[5] = biological target: T3, Lin^A25 mutant protein (N793I) (Drosophila) (UniProt Q9V4Z9); assay: as above
T3 sequence: T1 sequence with N793I

Substance | binding [1] | binding [2] | binding [3] | binding [4] | binding [5]
HA-Bowl (from UniProt Q9VQU9 1-744) | binds | binds |  |  | 
HA-Bowl^122–373K137R (from UniProt Q9VQU9 122-373) (domain or fragment) |  |  | binds | binds | 
Hyd-HA (hyperplastic disc) (from UniProt P51592 1-2885) (enzyme) |  | binds | binds | binds | binds
